Source: PMC3749136

Amino acid sequences for entries named in this document (tags omitted). A change or cut given only in a name is not applied to a line headed by its entry.
UniProt O60674: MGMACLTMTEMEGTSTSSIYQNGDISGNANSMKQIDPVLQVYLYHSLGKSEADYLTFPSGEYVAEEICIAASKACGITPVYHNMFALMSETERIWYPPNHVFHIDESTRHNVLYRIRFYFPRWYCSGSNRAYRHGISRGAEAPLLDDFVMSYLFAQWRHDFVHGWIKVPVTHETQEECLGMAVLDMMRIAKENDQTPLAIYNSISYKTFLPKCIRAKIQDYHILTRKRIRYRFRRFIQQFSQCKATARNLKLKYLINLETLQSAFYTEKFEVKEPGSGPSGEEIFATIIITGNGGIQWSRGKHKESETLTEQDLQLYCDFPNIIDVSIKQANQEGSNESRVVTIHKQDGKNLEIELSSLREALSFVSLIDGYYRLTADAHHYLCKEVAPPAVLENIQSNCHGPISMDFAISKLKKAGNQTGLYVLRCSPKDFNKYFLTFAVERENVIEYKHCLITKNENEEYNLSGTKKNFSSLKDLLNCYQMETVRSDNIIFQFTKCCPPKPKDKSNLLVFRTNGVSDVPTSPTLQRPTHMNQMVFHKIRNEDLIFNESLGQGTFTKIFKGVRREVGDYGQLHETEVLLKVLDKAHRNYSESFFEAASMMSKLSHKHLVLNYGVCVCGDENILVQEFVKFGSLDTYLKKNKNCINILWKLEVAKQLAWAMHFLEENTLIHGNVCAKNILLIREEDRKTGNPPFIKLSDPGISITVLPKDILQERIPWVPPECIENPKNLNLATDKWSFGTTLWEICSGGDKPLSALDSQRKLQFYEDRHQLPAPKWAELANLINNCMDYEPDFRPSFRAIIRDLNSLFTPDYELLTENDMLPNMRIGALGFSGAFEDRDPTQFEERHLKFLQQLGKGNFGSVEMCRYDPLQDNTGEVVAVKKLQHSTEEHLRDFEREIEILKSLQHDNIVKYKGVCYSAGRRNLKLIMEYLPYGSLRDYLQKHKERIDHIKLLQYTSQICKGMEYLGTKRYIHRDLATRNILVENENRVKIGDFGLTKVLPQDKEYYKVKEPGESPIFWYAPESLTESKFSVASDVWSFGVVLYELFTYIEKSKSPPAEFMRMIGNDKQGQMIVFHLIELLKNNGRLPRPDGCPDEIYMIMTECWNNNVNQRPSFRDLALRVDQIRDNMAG

Target: JAK2 JH1 domain (UniProt O60674)
Test: SPR; JAK1 and JAK2 JH1 domains immobilised on the chip, SOCS5 175-244 flowed over; non-specific binding of SOCS5 175-244 to the reference surface precluded quantitative analysis; both purified

binding: binds
B1: SOCS5 175–244 fragment (domain or fragment, UniProt O54928 175-244)
chain: RSLRQRLQDTVGLCFPMRTYSKQSKPLFSNKRKIHLSELMLEKCPFPAGSDLAQKWHLIKQHTAPVSPHS

These are yes or no findings as the source states them, for the method shown. Binding calls can cover weak binding; strength is not graded here.
